Binding data for nine substances are collected here from publication doi:10.1101/772699 (bioRxiv, 2019).

No constants are given. Whether binding was seen depends on the method and setting. For some assays here: Binding calls can cover weak binding; strength is not graded here.

For one experiment, the target named is T1, APETALA3 (A. thaliana) (UniProt P35632).
T1 sequence: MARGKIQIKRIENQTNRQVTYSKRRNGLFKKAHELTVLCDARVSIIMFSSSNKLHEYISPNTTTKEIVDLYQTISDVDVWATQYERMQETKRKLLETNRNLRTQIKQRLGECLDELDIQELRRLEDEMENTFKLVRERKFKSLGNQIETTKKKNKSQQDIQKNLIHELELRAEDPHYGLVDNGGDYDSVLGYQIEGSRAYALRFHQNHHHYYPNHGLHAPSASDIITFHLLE
The experiment is described as follows: two-hybrid.

The target in another experiment is T2, … (A. thaliana) (UniProt P48007).
T2 sequence: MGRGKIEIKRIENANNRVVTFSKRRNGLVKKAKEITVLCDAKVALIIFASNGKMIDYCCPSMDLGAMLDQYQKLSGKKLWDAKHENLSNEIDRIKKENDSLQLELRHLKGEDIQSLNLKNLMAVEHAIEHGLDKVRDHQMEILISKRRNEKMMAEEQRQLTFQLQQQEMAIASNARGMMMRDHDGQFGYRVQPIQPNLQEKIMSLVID
The experiment is described as follows: two-hybrid.

The target in experiment [1] is T3, K-domain of SEP3 (SEP3^75-178) (A. thaliana) (UniProt O22456).
T3 sequence: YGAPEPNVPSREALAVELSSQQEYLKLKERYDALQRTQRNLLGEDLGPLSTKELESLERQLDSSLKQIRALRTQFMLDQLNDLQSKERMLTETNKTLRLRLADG
As to the kind of experiment: dynamic light scattering.

Turning to “SAP54 lacking the second predicted helix (amino acids 59-91) (domain or fragment)”, the binding result in the experiment with APETALA3 (A. thaliana) and with … (A. thaliana) was “no binding” in each case.

For the substance “SAP54 lacking the putative turn region (amino acids 49-58)”, the binding entry with APETALA3 (A. thaliana) and with … (A. thaliana) was “no binding” throughout.

For the substance SAP54 (purified, secreted part), the binding entry in experiment [1] is “binds”.

Turning to SAP54-I69P, the binding entry with APETALA3 (A. thaliana) and with … (A. thaliana) was “no binding” each time.

As for SAP54-L27P, the binding entry with APETALA3 (A. thaliana) and with … (A. thaliana) was “no binding” in each case.

Consider “SAP54 lacking the first predicted helix (amino acids 1-48 of the mature SAP54) (domain or fragment)”, for which the binding entry in the experiment with APETALA3 (A. thaliana) and with … (A. thaliana) was “no binding” throughout.

Turning to SAP54-L65P, the binding result in the experiment with APETALA3 (A. thaliana) and with … (A. thaliana) was “no binding” throughout.

For “SECRETED ASTER YELLOWS-WITCHES' BROOM PROTEIN 54 wildtype”, the binding result with APETALA3 (A. thaliana) and with … (A. thaliana) was “no binding” throughout.

Turning to SAP54Δ81-91 (domain or fragment), the binding entry with APETALA3 (A. thaliana) and in the experiment with … (A. thaliana) was “no binding” throughout.
